In patent US20050048527:
For some of these results: A weaker result is weaker than the reference pair of the same experiment.

What was measured:
Assay in all cases: enzyme reaction in vitro
[1] = molecular target: T1, Pfu FEN1 (Pyrococcus furiosus) (UniProt O93634); conditions: 4 mM MgCl2, 50 C; rates in figure; purified recombinant protein; label: 5'-TET; folded or branched DNA
T1 sequence: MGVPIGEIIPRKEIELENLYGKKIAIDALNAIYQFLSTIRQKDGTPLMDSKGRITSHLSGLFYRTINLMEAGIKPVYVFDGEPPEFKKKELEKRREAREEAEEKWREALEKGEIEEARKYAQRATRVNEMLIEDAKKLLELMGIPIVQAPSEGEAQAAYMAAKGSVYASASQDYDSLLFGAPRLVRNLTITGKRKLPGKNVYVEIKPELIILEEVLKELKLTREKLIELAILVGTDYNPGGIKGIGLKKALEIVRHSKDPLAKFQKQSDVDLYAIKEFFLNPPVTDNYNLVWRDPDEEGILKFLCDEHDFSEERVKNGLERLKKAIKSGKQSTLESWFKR

[2] = molecular target: Pfu Y33A FEN1 (Pyrococcus furiosus) (UniProt O93634); conditions: more reduced rate, specificity unchanged; purified recombinant protein; label: 5'-TET; folded or branched DNA
[3] = molecular target: Pfu Y33F FEN1 (Pyrococcus furiosus) (UniProt O93634); conditions: reduced rate, specificity unchanged; purified recombinant protein; label: 5'-TET; folded or branched DNA
[4] = molecular target: Pfu R94A FEN1 (Pyrococcus furiosus) (UniProt O93634); conditions: one methylphosphonate linkage in probe (Pd6), racemic; R94A cleaves methylphosphonate-modified probe; 50 C; purified recombinant protein; label: 5'-TET probe; folded or branched DNA

| Sequence | activity on this sequence [1] | activity on this sequence [2] | activity on this sequence [3] | activity on this sequence [4] |
| --- | --- | --- | --- | --- |
| AAAACGCTGTCTCGCTGAAAGCGAGACAGCGAAAGACGCTCGT / ACGAGCGTCTTTT [203-15-2/203-15-5] | active | less active | less active |  |
| CACTCCAGGGACGCGGACT / CTTTTACTCACCGCAGTTGGTCCGCGTCCCTGGAGTGTTC / TTTTCAACTGCGGTGAG [Pd6 substrate 1174-55-13] |  |  |  | active |
